The other results are listed elsewhere or left out. Shown are side measurements of this screen, not its main read-out; they come without a call. Most of these compounds were active or inconclusive in the main read-out, so they are no random draw. Words in brackets tell the shape of the fitted curve; partial curves, single points and poor fits give uncertain potencies.
Assay: qHTS Assay to Find Inhibitors of Chronic Active B-Cell Receptor Signaling
Conditions: ABC-DLBCL IkBa-CBG/CBR reporter, luminescence ratio (green luciferase fused to IkBa over red control in TMD8 lymphoma cells), 4 h
Procedure, shortened: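 TMD8 ABC-DLBCL cells carrying doxycycline-inducible green luciferase fused to IkappaBalpha plus unfused red luciferase were exposed to compounds (up to 46 uM) for 4 hrs at 37C. Activity came from the overlap-corrected green/red luminescence ratio.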

[1] = measured here: CBR red luminescence, cell number
[2] = measured here: IkBa-CBG green luminescence

SMILES | AC50 [1] | AC50 [2]
COC(=O)Cn1ncc2c3ccccc3n(C)c2c1=O | 20 µM [rising, single point] | –
O=C(CCN1C(=O)/C(=C/C=C/c2ccccc2)SC1=S)Nc1cccnc1 | 1.84 µM [falling, full curve] | –
Cc1cc(/C=C2/NC(=O)NC2=O)c(C)n1-c1ccc(N2CCOCC2)cc1 | 35.5 µM [rising, partial curve, poor fit] | –
COC(=O)c1sccc1NC(=O)c1c(-c2ccccc2)noc1C | 14.6 µM [rising, partial curve, poor fit] | –
CCCCSCCCNC(=O)CS(=O)Cc1nc(-c2cccc(C)c2)oc1C (configuration not stated) | 18.4 µM [falling, single point] | –
Cc1ccsc1C(=O)Nc1nnc(-c2ccco2)o1 | 9.2 µM [falling, partial curve] | –
CC(C)c1cc(-c2cc(-c3ccc(Cl)cc3)on2)nc(NCC2CC2)n1 | 25.1 µM [rising, partial curve, poor fit] | –
O=C(Nc1ccc(Cl)cc1)c1ccc2nsnc2c1 | 2.82 µM [falling, full curve, poor fit] | –
CC(=O)Nc1ccc(S(=O)(=O)CCC#N)cc1 | 16.4 µM [rising, single point] | –
Cn1cc(Br)c(C(=O)N/N=C/c2cccc(OC3CSC3)c2)n1 | 11.6 µM [falling, partial curve] | –
CC(=O)c1sc(-c2ccc(Cl)cc2)nc1C | 3.55 µM [rising, full curve, poor fit] | –
Cc1ccc(O)c(CCc2ccc(O)cc2)n1 | 5.01 µM [falling, single point] | –
CCOc1ccc(-c2nnn(CC(=O)NCc3ccco3)n2)cc1 | 17.8 µM [rising, single point] | –
Cc1ccc(-n2ncc(C(=O)N3CCc4ccccc4C3)c2NC(=O)c2ccco2)cc1C | 5.17 µM [rising, full curve] | –
Cc1ccc(NC(=O)CN(C)C(=O)CNC(=O)c2ccc3c(c2)OCO3)cc1 | 20.6 µM [rising, single point] | –
COc1cc(NC2c3ccccc3C(=O)N2Cc2ccccc2Cl)cc(OC)c1 (configuration not stated) | 14.1 µM [falling, single point] | –
COc1cc(CNCc2ccccn2)ccc1OCc1ccc(Cl)cc1 | 1.3 µM [falling, full curve, poor fit] | –
NC(=O)CSc1nnc(-c2cnccn2)n1-c1ccccc1 | 23.1 µM [falling, single point] | –
COc1ccc(C2(CNC(=O)c3cc([N+](=O)[O-])cc([N+](=O)[O-])c3)CCCC2)cc1OC | 29.1 µM [falling, single point] | –
Cc1cc(OCC(=O)Nc2ccncc2)c(C)cc1Br | 6.51 µM [rising, single point] | –

SMILES | AC50 [1] | AC50 [2]
CSC1=C(C#N)C(c2ccccc2Cl)C(C(C)=O)=C(C)N1 (configuration not stated) | 11.6 µM [falling, partial curve, poor fit] | –
Clc1ccc(C(Cn2ccnc2)OCc2c(Cl)cccc2Cl)c(Cl)c1 (configuration not stated) | 20.6 µM [falling, single point] | –
Cc1ccccc1C(=O)NNC(=O)CSc1nc(-c2ccccc2)cc(=O)[nH]1 | 2.82 µM [falling, partial curve] | –
Cc1cccc2c1-c1sc(C(=O)NCCCN3CCc4ccccc4C3)cc1CO2 | 15.8 µM [falling, partial curve] | 20 µM [rising, partial curve, poor fit]
Cc1ccc(NC(=O)c2nc[nH]c2C(=O)NCCCCNC(=O)c2[nH]cnc2C(=O)Nc2ccc(C)cc2)cc1 | 0.00411 µM [rising, full curve, poor fit] | –
CCS(=O)(=O)CCSC(=N)N | 0.146 µM [falling, full curve, poor fit] | –
Oc1ccc(Cl)cc1-c1cc(-c2cccc(Br)c2)n[nH]1 | 11.6 µM [falling, single point] | –
COc1ccc2nc(/N=C(\N)NC(=O)Nc3ccccc3)nc(C)c2c1 | 2.91 µM [rising, partial curve, poor fit] | –
Oc1ccc(Br)cc1C=Nc1cccn2cc(-c3ccccc3)nc12 | 14.1 µM [falling, single point] | –
COc1cc(NC(=O)COC(=O)Cc2ccc(-c3ccccc3)cc2)cc(OC)c1 | – | 23.1 µM [falling, partial curve, poor fit]
CCCCNc1ccccc1C(=O)OCC(=O)Nc1ccc(S(N)(=O)=O)cc1 | 16.4 µM [falling, partial curve, poor fit] | –
O=C(CN1CCOCC1)N/N=C/c1cc2ccccc2nc1Cl | 16.4 µM [rising, partial curve, poor fit] | –
C=CCSC1=C(C#N)C(c2cc(Br)c(O)c(OC)c2)CC(=O)N1 (configuration not stated) | 29.1 µM [falling, single point] | –
Cc1nn2c(c1-c1ccccc1)NC1=C(C(=O)CCC1)C2c1ccccc1 (configuration not stated) | 14.1 µM [falling, single point] | –
O=C(/C=C/c1ccccc1[N+](=O)[O-])Nc1cccnc1 | 6.51 µM [rising, single point] | –
CCC(=O)OC1(C(=O)CCl)[C@@H](C)C[C@H]2[C@@H]3CCC4=CC(=O)C=C[C@]4(C)[C@@]3(F)[C@@H](O)C[C@@]21C (some centres not stated) | 11.6 µM [falling, single point] | –
CC(C)CCn1c(=O)c(C(=O)N/N=C/c2cccc(F)c2)c(O)c2ccccc21 | 18.4 µM [falling, partial curve, poor fit] | –
O=C1c2ccccc2C(=O)C1(O)O | 29.1 µM [rising, single point] | 29.1 µM [falling, single point]
CC(NC(=O)C12CC3CC(CC(C3)C1)C2)C(=O)N/N=C/C1=C(N2CCOCC2)C(=C\c2ccccc2)/CC1 (configuration not stated) | 2.91 µM [falling, partial curve] | –
CCOC(=O)c1c(-c2ccc(OC)cc2)csc1/N=C/C1=C(O)CCCC1=O | 25.9 µM [falling, partial curve] | –

No new results follow: entries from further up.
SMILES | AC50 [1] | AC50 [2]
Cc1nn2c(c1-c1ccccc1)NC1=C(C(=O)CCC1)C2c1ccccc1 (configuration not stated) | 14.1 µM [falling, single point] | –
O=C(/C=C/c1ccccc1[N+](=O)[O-])Nc1cccnc1 | 6.51 µM [rising, single point] | –
